Data taken from PubChem BioAssay AID2685 (National Center for Advancing Translational Sciences (NCATS), 2010).
Screen size: about 320,000 compounds; about 2,100 (0.66%) were called active. Inconclusive results, whose numbers are uncertain, are shown with a selection of clear calls. The call rests on the fitted dose curve; in most records, active means well fitted inhibition curve with a large enough effect in the signal ratio, with a control signal flat (not every such curve was filed as active); inconclusive means small, poorly fitted or top-dose-only effect, or effect the other way, or a change in a side signal; inactive means flat fitted curve, though single readings scatter; the % refers to the signal ratio. Potencies beside an inconclusive call are fits to weak or partial responses and may not hold up.

assay: qHTS Assay for Lipid Storage Modulators in Drosophila S3 Cells; conditions: BODIPY lipid droplet fluorescence, 18-24 h, cells fed with added oleic acid; lipid storage change, negative = inhibition: at 46.1 µM (top of the series) unless noted
In short: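 Laser-scanning cytometry quantifies lipid droplet accumulation (500–530 nm total intensity; droplet/cell object ratio) in oleic acid-fed (400 uM added) Drosophila S3 cells treated with a concentration series. 20 uM Triacsin C defined 100% inhibition.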
On the % scale 0 is the no-effect control and ±100 the full control effect; potency means the concentration at half of the fitted maximal effect.

Structure (SMILES)	lipid storage change, negative = inhibition	Potency
CCOC(=O)c1cccc(NC(=O)C2CCN(S(=O)(=O)c3cnc[nH]3)CC2)c1	inconclusive: 53.2% [activator]	
O=C(NC(NC(=S)Nc1ccccc1Cl)C(Cl)(Cl)Cl)c1cccc(Cl)c1 (configuration not stated)		inconclusive: 29.1 µM [falling, single point]
O=C(Nc1cccc(NC(=O)c2cccs2)c1)c1ccco1		inconclusive: 1.03 µM [activator, single point]
CCOc1ccc(NC(=O)NCc2ccco2)cc1	inconclusive: 13.5%	
COc1ccc(S(=O)(=O)NC2CCCCC2)c(C)c1C	inconclusive: 45.3%	
O=C(CCN1C(=O)/C(=C/c2ccccc2Cl)SC1=S)NNC(=O)c1ccccc1O		inconclusive: 3.66 µM [falling, full curve]
CCN(c1ccccc1)S(=O)(=O)c1ccc(Cl)c(NC(=O)CN2C(=O)NC3(CCCC3)C2=O)c1		inconclusive: 5.8 µM [activator, full curve, poor fit]
O=C(N/N=C1\CCc2ccccc21)c1ccc(O)cc1	inconclusive: -31.5%	
O=C(c1c(F)cccc1F)N(Cc1ccccc1)Cc1ccccc1		inconclusive: 29.1 µM [falling, single point]
CCCc1ccc(NC(=O)C2CCCN(c3cnccn3)C2)cc1 (configuration not stated)	inconclusive: -55.4%	
CCN(CC)S(=O)(=O)c1cc(C)c(C)cc1OCC(=O)NC1CCCC1	inconclusive: -57%	
CC1(C)CC(NC(=O)c2ccc(Cl)c(S(=O)(=O)N(Cc3ccccc3)c3ccccc3)c2)CC(C)(C)N1	inconclusive: 3.92%	
CCN(CC)C(=O)NC1CCCCCCC1	inconclusive: -39.5% [at 0.369 µM]	
CCCN(C(=O)CSc1nnnn1C)C1CCS(=O)(=O)C1 (configuration not stated)	inconclusive: 7.77% [at 9.22 µM]	
COc1ccc(C2CC(=O)C(C=NCCN3CCN(C(C)=O)CC3)=C(O)C2)cc1 (configuration not stated)	inconclusive: 2.89%	
O=C(COC(=O)c1ccc(S(=O)(=O)N2CCCC2)cc1)Nc1cccc(F)c1	inconclusive: 1.14%	
O=C(N/N=C\c1ccc[nH]1)C1COc2ccccc2O1 (configuration not stated)		inconclusive: 0.651 µM [falling, single point]
O=C(Nc1nc(-c2ccco2)c(-c2ccco2)s1)C1CCC1	inconclusive: 72.8%	
CN1C(=O)C(O)(CC(=O)/C=C/c2ccco2)c2cc(Br)ccc21 (configuration not stated)		inconclusive: 2.06 µM [falling, partial curve]
COc1ccc(C=O)cc1Cn1c(=O)n(CCC(=O)NCc2ccco2)c(=O)c2sccc21	inconclusive: 19.3% [at 9.22 µM]	
COC(=O)c1ccc(N2C(=O)c3ccc(OC)c(OC)c3C2=O)cc1		inconclusive: 5.8 µM [activator, single point]
O=C(Cc1ccccc1)NNC(=S)Nc1ccccc1	inconclusive: -28%	
CCOC(=O)C1CCN(C(=O)C2CCN(S(=O)(=O)c3cc(Cl)ccc3OCC)CC2)CC1		inconclusive: 29.1 µM [cytotoxic, single point]
O=C(CCl)N1N=C(c2cccs2)CC1c1ccco1 (configuration not stated)		inconclusive: 8.2 µM [falling, partial curve, poor fit]

Structure (SMILES)	lipid storage change, negative = inhibition	Potency
Cc1onc(-c2ccccc2Cl)c1C(=O)N1CCCCC1	inconclusive: 1.2%	
O=C(Cc1ccc(F)cc1)N1CCC(CC2CC(c3ccc(Cl)cc3)=NO2)(C(=O)NCC2CCCCC2)CC1 (configuration not stated)	inconclusive: -25.6%	
COc1ccc(CC(=O)NC2CCN(CC(=O)Nc3ccc4c(c3)OCCO4)CC2)cc1OC	inconclusive: 4.86%	
COc1ccc(/C=C/C(=O)NC(=S)NNC(=O)c2cccs2)cc1OC		inconclusive: 9.2 µM [activator, partial curve, poor fit]
COc1cccc(/C=C2\NC(=O)NC2=O)c1O	inconclusive: 50.2%	
Cc1ccc2cc(CN(CCCO)S(=O)(=O)c3cccc4nsnc34)c(=O)[nH]c2c1C	inconclusive: 12%	
COc1ccc(CN(C)C(=O)/C=C/c2ccc(S(=O)(=O)N3CCCCCC3)cc2)cc1		inconclusive: 0.0184 µM [falling, full curve, poor fit]
CCn1c(=O)c2c(nc(SCC(=O)NC3CCCC3)n2C)n(C)c1=O		inconclusive: 18.4 µM [activator, partial curve]
CCOC(=O)N1CCN(Cc2nc3cc(NC(=O)C(C)C)ccc3n2CC)CC1		inconclusive: 8.2 µM [falling, partial curve, poor fit]
Cc1cc(C)c(S(=O)(=O)n2ccc3ccccc32)c(C)c1	inconclusive: 7.05%	
O=C(COC(=O)Cc1n[nH]c(=O)c2ccccc12)Nc1ncc(Cl)cc1Cl		inconclusive: 29.1 µM [activator, single point]
CSc1ncccc1C(=O)OCC(=O)N1CC(=O)Nc2ccccc21		inconclusive: 1.84 µM [activator, partial curve, poor fit]
COC(=O)c1ccc(C2C(C#N)=C(N)Oc3cc(C)n(C)c(=O)c32)cc1 (configuration not stated)		inconclusive: 3.66 µM [activator, partial curve]
CC(Sc1nnc(-c2cccs2)n1-c1ccccc1)C(=O)NCc1ccco1 (configuration not stated)		inconclusive: 1.46 µM [rising, full curve]
CCc1ccc(NCc2ccc(OC)c(Cn3ccnc3)c2)cc1		inconclusive: 29.1 µM [cytotoxic, single point]
CCOc1ccc(NC(=O)CS(=O)(=O)c2cn(CC)c3ccccc23)cc1		inconclusive: 4.11 µM [activator, full curve, poor fit]
Cc1cc(C)n(CCC(=O)N/N=C/c2c(O)ccc3ccccc23)n1		inconclusive: 29.1 µM [falling, single point]
CC(NC(=S)Nc1ccc(Cl)cc1)C(c1ccccc1)N1CCOCC1 (configuration not stated)		inconclusive: 5.17 µM [activator, partial curve, poor fit]
CCN(CC)C(=O)COc1ccc2c(-c3ccc(OC)cc3)cc(=O)oc2c1	inconclusive: 9.39%	
Cc1ccc(OCCNC(=O)/C=C/c2ccccc2)cc1C	inconclusive: 10.7%	
Cc1cccc(NC(=O)CC(C)(C)C)c1	inconclusive: 4.01%	
COc1ccc(CN(C)C(=O)COC(=O)c2c(-c3ccccc3Cl)noc2C)cc1	inconclusive: 13.7%	
CCc1ccc(OC(=O)c2cccnc2)cc1	inconclusive: 29.2%	
O=C(Cc1cccs1)Nc1cccc(-c2nc3ccccc3[nH]2)c1		inconclusive: 0.517 µM [activator, single point]

Structure (SMILES)	lipid storage change, negative = inhibition	Potency
O=[N+]([O-])/C(=C\Nc1ccccc1Cl)S(=O)(=O)c1ccccc1	inconclusive: -24.1%	
COc1cc(NC(=O)CN2CCN(S(=O)(=O)/C=C/c3ccccc3)CC2)cc(OC)c1OC		inconclusive: 5.17 µM [falling, partial curve]
COc1ccc(NC(=S)NC(C)C(c2ccccc2)N2CCOCC2)cc1 (configuration not stated)		inconclusive: 6.51 µM [rising, single point]
Cc1ccc(CNC(=O)COC(=O)c2ccc(Br)o2)cc1		inconclusive: 0.58 µM [rising, single point]
CCc1ccccc1NC(=O)C1CCCN(c2ncccn2)C1 (configuration not stated)	inconclusive: -152%	
C=CCn1c(=O)c(C(=O)Nc2ccccc2O)c(O)c2ccccc21	inactive	
COc1cc(S(=O)(=O)Nc2cccc3cn[nH]c23)c(OC)cc1Cl		inconclusive: 29.1 µM [falling, single point]
Cc1cccc(C(=O)Nc2ccc(S(=O)(=O)Nc3nc(C)cc(C)n3)cc2)c1		inconclusive: 0.92 µM [activator, full curve, poor fit]
Cc1nn(C)c(C(=O)NNC(=S)Nc2ccc(F)cc2)c1[N+](=O)[O-]		inconclusive: 14.6 µM [falling, single point]
O=C(CSc1nnc(NC(=O)c2ccccc2)s1)NCc1ccco1	inconclusive: -7.21%	
CC(C)OC(=O)/C(C#N)=C\c1cccnc1	inactive	
CCOC(=O)C1=C(COC(=O)COc2ccccc2C(C)C)NC(=O)NC1C (configuration not stated)	inconclusive: 35.8% [at 0.0737 µM]	
O=C(O)c1ccc(NC(=O)c2ccco2)c(NC(=O)c2ccco2)c1	inconclusive: -10.9%	
CC(C)CC(=O)N1CCN(C(=O)c2ccc(-c3ccccc3)cc2)CC1		inconclusive: 29.1 µM [falling, single point]
Cc1cc2cc(CCNC(=O)CCc3ccccc3)c(=O)[nH]c2cc1C	inconclusive: -6.39%	
CCc1ccc(NC(=O)Cn2nc(C(=O)O)c3ccccc3c2=O)cc1	inconclusive: 209%	
Cc1cnc(NC(=O)COc2ccccc2)s1	inconclusive: 6.32%	
O=C(NCc1ccccn1)c1cccc(S(=O)(=O)N2CCCCC2)c1	inconclusive: -0.181%	
CCOc1ccc(/C=N/NC(=O)CSc2ccccn2)cc1O	inconclusive: 27.1%	
CC1CCC/C(=N\NC(=S)NCc2ccccc2)C1 (configuration not stated)	inconclusive: -79%	
C/C(=N\NC(=O)CCC(=O)Nc1ccc(C)c(C)c1)c1cccs1	inconclusive: -9.79%	
CC(C)C(C)(C#N)NC(=O)CSc1ncnc2sc(-c3ccccc3)cc12 (configuration not stated)		inconclusive: 0.82 µM [activator, single point]
CC1CCCC(C)N1CCCNC(=O)Cn1ncc2c([nH]c3ccccc32)c1=O (configuration not stated)	inconclusive: 90.8%	
CCCCn1c(CCC(=O)O)nc2cc(S(=O)(=O)N(CC)CC)ccc21		inconclusive: 29.1 µM [falling, single point]

Ordered by molecular weight (ascending): some entries from above
Structure (SMILES)	lipid storage change, negative = inhibition	Potency
CCc1ccc(NC(=O)Cn2nc(C(=O)O)c3ccccc3c2=O)cc1	inconclusive: 209%	
O=C(NCc1ccccn1)c1cccc(S(=O)(=O)N2CCCCC2)c1	inconclusive: -0.181%	
COc1cc(S(=O)(=O)Nc2cccc3cn[nH]c23)c(OC)cc1Cl		inconclusive: 29.1 µM [falling, single point]
Cc1cccc(C(=O)Nc2ccc(S(=O)(=O)Nc3nc(C)cc(C)n3)cc2)c1		inconclusive: 0.92 µM [activator, full curve, poor fit]
